Results from publication PMC3846882.
No constants are given. Whether binding was seen depends on the method and setting. Binding seen in cells or lysates may run through a third protein. A yes stands for co-enrichment or nearness to the bait. Other partners may have been found. For part of these data: Tags and fused reporters may be left off the sequences shown. Values belong to the binder of their own block, whether it stands above or below them.

The chains behind the UniProt entries cited, without tags or fusion partners.
UniProt Q15046: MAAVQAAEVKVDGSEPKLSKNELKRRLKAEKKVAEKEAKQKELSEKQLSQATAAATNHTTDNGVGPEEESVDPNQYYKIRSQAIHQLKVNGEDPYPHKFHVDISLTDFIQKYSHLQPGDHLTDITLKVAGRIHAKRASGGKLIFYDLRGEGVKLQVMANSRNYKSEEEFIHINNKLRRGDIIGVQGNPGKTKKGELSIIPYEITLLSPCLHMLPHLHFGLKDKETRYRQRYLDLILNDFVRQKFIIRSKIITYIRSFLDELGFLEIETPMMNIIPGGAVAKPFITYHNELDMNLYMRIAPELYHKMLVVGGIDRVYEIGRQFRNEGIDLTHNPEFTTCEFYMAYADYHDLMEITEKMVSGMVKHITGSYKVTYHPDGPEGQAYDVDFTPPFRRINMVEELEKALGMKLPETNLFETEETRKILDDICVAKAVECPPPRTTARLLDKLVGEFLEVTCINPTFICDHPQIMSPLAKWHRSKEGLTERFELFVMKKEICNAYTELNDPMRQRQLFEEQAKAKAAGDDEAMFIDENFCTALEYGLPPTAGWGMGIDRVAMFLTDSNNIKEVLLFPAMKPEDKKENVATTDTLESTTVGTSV

Legend:
Experiment in all cases: affinity purification with mass spectrometry; S/FLAG/SBP-tagged bait transiently expressed in HEK 293T and HCT-8 cells; 2 mg lysate protein in NETN buffer (20 mM Tris-HCl pH 7.4, 1 mM EDTA, 150 mM NaCl, 0.5% Nonidet P-40) on streptavidin agarose, 2 h, 4 °C; eluted with biotin; in-gel digestion, LC-MS/MS; SAINT probability 0.9 or above against a mock vector with the tag only; three biological replicates
[1] = target: T1, S/FLAG/SBP tagged AIMP2 (UniProt Q13155)
T1 sequence: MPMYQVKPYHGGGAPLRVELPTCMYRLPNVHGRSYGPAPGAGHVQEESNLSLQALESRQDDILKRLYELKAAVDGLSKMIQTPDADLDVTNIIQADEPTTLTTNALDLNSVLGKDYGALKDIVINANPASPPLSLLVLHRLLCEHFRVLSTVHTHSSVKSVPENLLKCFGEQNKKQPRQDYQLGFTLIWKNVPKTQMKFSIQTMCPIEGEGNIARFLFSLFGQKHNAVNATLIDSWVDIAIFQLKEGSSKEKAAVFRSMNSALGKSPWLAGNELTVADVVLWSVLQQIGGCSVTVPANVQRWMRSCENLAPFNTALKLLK

[2] = target: T2, S/FLAG/SBP tagged AIMP1 (UniProt Q12904)
T2 sequence: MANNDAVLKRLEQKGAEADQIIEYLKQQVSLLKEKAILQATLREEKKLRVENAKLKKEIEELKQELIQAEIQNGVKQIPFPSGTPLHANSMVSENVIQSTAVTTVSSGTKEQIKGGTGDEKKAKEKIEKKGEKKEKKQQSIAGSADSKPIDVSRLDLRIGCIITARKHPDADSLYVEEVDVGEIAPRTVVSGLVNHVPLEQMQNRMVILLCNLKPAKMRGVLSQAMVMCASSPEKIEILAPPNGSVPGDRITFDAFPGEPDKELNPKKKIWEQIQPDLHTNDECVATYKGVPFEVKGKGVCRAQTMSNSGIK

[3] = target: S/FLAG/SBP tagged KARS (UniProt Q15046)
[4] = target: S/FLAG/SBP tagged KARS, Q15046; conditions: remark: other sources report otherwise
[5] = target: T3, S/FLAG/SBP tagged AIMP2, Q13155; conditions: remark: other sources report otherwise
T3 chain: T1 sequence

- binding [1]: binds
- binding [2]: binds
- binding [3]: binds
B1: Isoleucyl-tRNA synthetase (enzyme, UniProt P41252 1-1262)
chain: MLQQVPENINFPAEEEKILEFWTEFNCFQECLKQSKHKPKFTFYDGPPFATGLPHYGHILAGTIKDIVTRYAHQSGFHVDRRFGWDCHGLPVEYEIDKTLGIRGPEDVAKMGITEYNNQCRAIVMRYSAEWKSTVSRLGRWIDFDNDYKTLYPQFMESVWWVFKQLYDKGLVYRGVKVMPFSTACNTPLSNFESHQNYKDVQDPSVFVTFPLEEDETVSLVAWTTTPWTLPSNLAVCVNPEMQYVKIKDVARGRLLILMEARLSALYKLESDYEILERFPGAYLKGKKYRPLFDYFLKCKENGAFTVLVDNYVKEEEGTGVVHQAPYFGAEDYRVCMDFNIIRKDSLPVCPVDASGCFTTEVTDFAGQYVKDADKSIIRTLKEQGRLLVATTFTHSYPFCWRSDTPLIYKAVPSWFVRVENMVDQLLRNNDLCYWVPELVREKRFGNWLKDARDWTISRNRYWGTPIPLWVSDDFEEVVCIGSVAELEELSGAKISDLHRESVDHLTIPSRCGKGSLHRISEVFDCWFESGSMPYAQVHYPFENKREFEDAFPADFIAEGIDQTRGWFYTLLVLATALFGQPPFKNVIVNGLVLASDGQKMSKRKKNYPDPVSIIQKYGADALRLYLINSPVVRAENLRFKEEGVRDVLKDVLLPWYNAYRFLIQNVLRLQKEEEIEFLYNENTVRESPNITDRWILSFMQSLIGFFETEMAAYRLYTVVPRLVKFVDILTNWYVRMNRRRLKGENGMEDCVMALETLFSVLLSLCRLMAPYTPFLTELMYQNLKVLIDPVSVQDKDTLSIHYLMLPRVREELIDKKTESAVSQMQSVIELGRVIRDRKTIPIKYPLKEIVVIHQDPEALKDIKSLEKYIIEELNVRKVTLSTDKNKYGIRLRAEPDHMVLGKRLKGAFKAVMTSIKQLSSEELEQFQKTGTIVVEGHELHDEDIRLMYTFDQATGGTAQFEAHSDAQALVLLDVTPDQSMVDEGMAREVINRIQKLRKKCNLVPTDEITVYYKAKSEGTYLNSVIESHTEFIFTTIKAPLKPYPVSPSDKVLIQEKTQLKGSELEITLTRGSSLPGPACAYVNLNICANGSEQGGVLLLENPKGDNRLDLLKLKSVVTSIFGVKNTELAVFHDETEIQNQTDLLSLSGKTLCVTAGSAPSLINSSSTLLCQYINLQLLNAKPQECLMGTVGTLLLENPLGQNGLTHQGLLYEAAKVFGLRSRKLKLFLNETQTQEITEDIPVKTLNMKTVYVSVLPTTADF

- binding [4]: binds
B2: Isoform 1 of Probable threonyl-tRNA synthetase 2, A2RTX5 1-802 (enzyme)
chain: MAAEALAAEAVASRLERQEEDIRWLWSEVERLRDEQLNAPYSCQAEGPCLTREVAQLRAENCDLRHRLCSLRLCLAEERSRQATLESAELEAAQEAGAQPPPSQSQDKDMKKKKMKESEADSEVKHQPIFIKERLKLFEILKKDHQLLLAIYGKKGDTSNIITVRVADGQTVQGEVWKTTPYQVAAEISQELAESTVIAKVNGELWDLDRPLEGDSSLELLTFDNEEAQAVYWHSSAHILGEAMELYYGGHLCYGPPIENGFYYDMFIEDRAVSSTELSALENICKAIIKEKQPFERLEVSKEILLEMFKYNKFKCRILNEKVNTATTTVYRCGPLIDLCKGPHVRHTGKIKTIKIFKNSSTYWEGNPEMETLQRIYGISFPDNKMMRDWEKFQEEAKNRDHRKIGKEQELFFFHDLSPGSCFFLPRGAFIYNTLTDFIREEYHKRDFTEVLSPNMYNSKLWEASGHWQHYSENMFTFEIEKDTFALKPMNCPGHCLMFAHRPRSWREMPIRFADFGVLHRNELSGTLSGLTRVRRFQQDDAHIFCTVEQIEEEIKGCLQFLQSVYSTFGFSFQLNLSTRPENFLGEIEMWNEAEKQLQNSLMDFGEPWKMNPGDGAFYGPKIDIKIKDAIGRYHQCATIQLDFQLPIRFNLTYVSKDGDDKKRPVIIHRAILGSVERMIAILSENYGGKWPFWLSPRQVMVIPVGPTCEKYALQVSSEFFEEGFMADVDLDHSCTLNKKIRNAQLAQYNFILVVGEKEKIDNAVNVRTRDNKIHGEILVTSAIDKLKNLRKTRTLNAEEAF

- binding [4]: binds
B3: Aminoacyl tRNA synthase complex-interacting multifunctional protein 1 (endogenous, canonical), Q12904 1-312 (protein)
chain: T2 sequence

- binding [5]: binds
B4: Methionyl-tRNA synthetase, P56192 1-900 (enzyme)
chain: MRLFVSDGVPGCLPVLAAAGRARGRAEVLISTVGPEDCVVPFLTRPKVPVLQLDSGNYLFSTSAICRYFFLLSGWEQDDLTNQWLEWEATELQPALSAALYYLVVQGKKGEDVLGSVRRALTHIDHSLSRQNCPFLAGETESLADIVLWGALYPLLQDPAYLPEELSALHSWFQTLSTQEPCQRAAETVLKQQGVLALRPYLQKQPQPSPAEGRAVTNEPEEEELATLSEEEIAMAVTAWEKGLESLPPLRPQQNPVLPVAGERNVLITSALPYVNNVPHLGNIIGCVLSADVFARYSRLRQWNTLYLCGTDEYGTATETKALEEGLTPQEICDKYHIIHADIYRWFNISFDIFGRTTTPQQTKITQDIFQQLLKRGFVLQDTVEQLRCEHCARFLADRFVEGVCPFCGYEEARGDQCDKCGKLINAVELKKPQCKVCRSCPVVQSSQHLFLDLPKLEKRLEEWLGRTLPGSDWTPNAQFITRSWLRDGLKPRCITRDLKWGTPVPLEGFEDKVFYVWFDATIGYLSITANYTDQWERWWKNPEQVDLYQFMAKDNVPFHSLVFPCSALGAEDNYTLVSHLIATEYLNYEDGKFSKSRGVGVFGDMAQDTGIPADIWRFYLLYIRPEGQDSAFSWTDLLLKNNSELLNNLGNFINRAGMFVSKFFGGYVPEMVLTPDDQRLLAHVTLELQHYHQLLEKVRIRDALRSILTISRHGNQYIQVNEPWKRIKGSEADRQRAGTVTGLAVNIAALLSVMLQPYMPTVSATIQAQLQLPPPACSILLTNFLCTLPAGHQIGTVSPLFQKLENDQIESLRQRFGGGQAKTSPKPAVVETVTTAKPQQIQALMDEVTKQGNIVRELKAQKADKNEVAAEVAKLLDLKKQLAVAEGKPPEAPKGKKKK

- binding [1]: binds
- binding [2]: binds
- binding [3]: binds
B5: Glutaminyl-tRNA synthetase (enzyme, UniProt P47897 1-775)
chain: MAALDSLSLFTSLGLSEQKARETLKNSALSAQLREAATQAQQTLGSTIDKATGILLYGLASRLRDTRRLSFLVSYIASKKIHTEPQLSAALEYVRSHPLDPIDTVDFERECGVGVIVTPEQIEEAVEAAINRHRPQLLVERYHFNMGLLMGEARAVLKWADGKMIKNEVDMQVLHLLGPKLEADLEKKFKVAKARLEETDRRTAKDVVENGETADQTLSLMEQLRGEALKFHKPGENYKTPGYVVTPHTMNLLKQHLEITGGQVRTRFPPEPNGILHIGHAKAINFNFGYAKANNGICFLRFDDTNPEKEEAKFFTAICDMVAWLGYTPYKVTYASDYFDQLYAWAVELIRRGLAYVCHQRGEELKGHNTLPSPWRDRPMEESLLLFEAMRKGKFSEGEATLRMKLVMEDGKMDPVAYRVKYTPHHRTGDKWCIYPTYDYTHCLCDSIEHITHSLCTKEFQARRSSYFWLCNALDVYCPVQWEYGRLNLHYAVVSKRKILQLVATGAVRDWDDPRLFTLTALRRRGFPPEAINNFCARVGVTVAQTTMEPHLLEACVRDVLNDTAPRAMAVLESLRVIITNFPAAKSLDIQVPNFPADETKGFHQVPFAPIVFIERTDFKEEPEPGFKRLAWGQPVGLRHTGYVIELQHVVKGPSGCVESLEVTCRRADAGEKPKAFIHWVSQPLMCEVRLYERLFQHKNPEDPTEVPGGFLSDLNLASLHVVDAALVDCSVALAKPFDKFQFERLGYFSVDPDSHQGKLVFNRTVTLKEDPGKV
